Laboratory results: PubChem BioAssay AID1671195 (Yale University, 2021)
Aim: 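Regulators of LDL receptor activity judged by labelled LDL uptake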 (primary screen). Cell system: human Huh7 hepatoma cells. Reagents: siRNA pool against human genes, 18 nM. Duration: about 2 to 2.5 days of knockdown, then 8 h LDL uptake. Treatment: DiI-labelled LDL at 30 µg/ml for 8 h, in lipoprotein-deficient serum medium. Detection: 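Fluorescent LDL signal imaged in cells, scaled to the plate median, robust z-score for each replicate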. Reading the numbers: robust z-score: higher = more LDL uptake after knockdown. Rule for the call: 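a gene counts as active if at least two replicate z-scores exceed ±2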.
This is an unselected part of about 22,000 reagents. About 1,510 of all reagents (6.9%) were called active. 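Active includes knockdowns raising or lowering LDL uptake; positive z-scores mean more uptake, negative mean less.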 A number with no mark means an inactive call.

How did the screen score C2CD4A?
robust z-score, replicate 1: 2.65; robust z-score, replicate 2: 1.63; robust z-score, replicate 3: 1.12

For DDX5, what does the deposit list?
robust z-score, replicate 1: 0.201; robust z-score, replicate 2: 0.0978; robust z-score, replicate 3: 0.412

For CAPZA1, how do the results read?
robust z-score, replicate 1: 0.83; robust z-score, replicate 2: 2.25; robust z-score, replicate 3: 0.483

How did the screen score LINC01106?
robust z-score, replicate 1: 1.63; robust z-score, replicate 2: 1.09; robust z-score, replicate 3: 1.84

With USP1, how do the results read?
robust z-score, replicate 1: -0.644; robust z-score, replicate 2: -0.839; robust z-score, replicate 3: -0.373

Which result is listed for RNF8?
robust z-score, replicate 1: 2.04 (active); robust z-score, replicate 2: 4.01; robust z-score, replicate 3: 2.22

For BCCIP, what was measured?
robust z-score, replicate 1: -0.592; robust z-score, replicate 2: 0.734; robust z-score, replicate 3: -1.24

Which result is listed for CREG1?
robust z-score, replicate 1: -0.467; robust z-score, replicate 2: -0.307; robust z-score, replicate 3: -1.28

For KCNG3, what does the deposit list?
robust z-score, replicate 1: 0.311; robust z-score, replicate 2: 1.03; robust z-score, replicate 3: 0.705

With GRIK3, what was measured?
robust z-score, replicate 1: -0.671; robust z-score, replicate 2: -1.2; robust z-score, replicate 3: -0.366

For DRAXIN, what does the deposit list?
robust z-score, replicate 1: -0.503; robust z-score, replicate 2: -0.0452; robust z-score, replicate 3: 0.0135

For LRSAM1, how do the results read?
robust z-score, replicate 1: -0.611; robust z-score, replicate 2: -0.315; robust z-score, replicate 3: -0.54

Hits (from the list above):
RNF8 — robust z-score, replicate 1: 2.04 (active); robust z-score, replicate 2: 4.01; robust z-score, replicate 3: 2.22
